This is an account of results in article PMC10163288.

This is one part of the list.

B1: il2ra_site2_2erj_normal_mot_HHH_b2_03029_000000035_0001_22_38_H_._c19e5fdadaa67d7d98d76bf2a1bb890a_0001_0001_0000600015_0000001_0_1_af2pred_0001_af2pred (protein)
chain: DEEVAELSRLAFELGDELLFRVILELLERIEKGDPEAEELVQELLELLRRGDPEEVERLAREILN
B2: il2ra_site2_3nfp_sap_24_mot_HHH_b1_04960_000000149_0001_23_39_H_._HHH_b2_08127_0001_0000400037_0000001_0_0001 (protein)
chain: SSSSDEDERRVEELLEEARHIPDPEEVRKLLAEAVKIAYENNNSELFFEIAEVAFELIQRSSSSS
B3: il2ra_site1_2b5i_sap_17_mot_HHH_b1_05608_000000027_0001_1_14_H_._HHH_b2_02617_0001_0000200017_0000001_0_0001 (protein)
chain: SSSSDHELTHAAVRIVWRLMWELNLSREEAKLLNRLAAELVERGVSPEELEEILREYAEEISSSS
B4: il2ra_site1_1z92_normal_mot_HHH_b1_02914_000000124_0001_22_39_H_._HHH_b1_08512_0001_0000300015_0000001_0 (protein)
chain: SSSSDEAVEFAFRMAEAAFKSNDEERLEFLIEYLRLALENTGDPRIEELLRQVEELLEELKSSSS
B5: il2ra_site1_2b5i_normal_mot_0e5a94e4a5addaac739760efb25f0f5d_0001_000000289_0001_18_32_H_._ems_p1-16H-GBL-16H-GABBL-15H_0053_0001_0001_0002_af2_0001_0000100002_ … (protein)
chain: SSSSSSEIEKEATELHEKANAAGNKEALKLTITALYRYKTGELTEEEARKLLEEARKLLESSSSS
B6: il2ra_site2_3nfp_normal_mot_HHH_b2_05281_000000198_0001_39_56_H_._HHH_b2_06744_0001_0000200015_0000001_0 (protein)
chain: SSSSSEEEELERLLQEAKRLIEEGNEEEARKLLSRAAALAFRLGDQEVFYELAELALLLASSSSS
B7: il2ra_site1_2b5i_sap_21_mot_ceb06541b665a12e9032ae1d16718599_0001_000000200_0001_16_30_H_._HHH_b1_01400_0001_0000600031_0000001_0_0001_af2pred_dldesign_0_af2pre … (protein)
chain: SSSDIEELERYAADVIYRLKAEYKLTVEQTKKLEDLAIELIDAGVSKEEIERRLRELAEKLSSSS
B8: il2ra_site1_3nfp_sap_16_mot_HHH_b1_03236_000000173_0001_17_33_H_._HHH_b1_01532_0001_0000300008_0000001_0_0001_af2pred_0001_af2pred_1_swapped (protein)
chain: SSSSDKREEAQRLSRRIEELIKEGDHEEARELLEELEELARELGSPAAKILVERLEKRIDSSSSS
B9: il2ra_site2_3nfp_sap_18_mot_HHH_b1_08395_000000276_0001_20_37_H_._74ee64136907a37587970186735a14f9_0001_0001_0000200022_0000001_1_0001 (protein)
chain: SSSSDKEEEEVKELIERIEELIKNGNPEEARELLRRAAQLAWEINNPELFFKLAELLLELASSSS
B10: il2ra_site1_2b5i_sap_14_mot_HHH_b1_05947_000000126_0001_42_56_H_._HHH_b2_02221_af2_0001_0000100001_0000001_0_0001_af2pred_dldesign_0_af2pred (protein)
chain: SSSSSSEAFDKVEDLFNEAMKLKDLEKRKEVLEKAIEVAEAGKDKKTVEQLKKYLELISSSSSSS
B11: il2ra_site2_2erj_sap_26_mot_35d2dc24e2c4431f89e6f806b163ecf8_0001_af2_000000142_0001_35_50_H_._HHH_b2_06829_0001_0000200022_0000001_0_0001 (protein)
chain: SSSSDEEAREVAEASIEAAELARRGNEEEARELLEEAIEHFRELNNEFAVRFLEFALRYISSSSS
B12: il2ra_site1_2b5i_normal_mot_HHH_b1_02271_000000068_0001_1_16_H_._HHH_b1_07466_af2_0001_0000300006_0000001_0_af2pred_dldesign_0_af2pred (protein)
chain: SSSSSDIEKEFEKVKAEAEALKAAGKRREALELLNEAYKYVSEKGDDELLDEIEKLAKELSSSSS
B13: il2ra_site1_1z92_normal_mot_HHH_b2_00969_af2_000000010_0001_43_57_H_._HHH_b1_01772_0001_0000700040_0000001_0_af2pred_dldesign_0_af2pred (protein)
chain: SSSSSSSERVEELEDRAAKLLKERTPESLKELEKLLKEAEALGETKLAKDIKTYLELASSSSSSS
B14: il2ra_site2_2erj_sap_24_mot_dcd9809507f71d420582ead1f1e1bbb3_0001_000000226_0001_37_50_H_._HHH_b2_06428_0001_0000100002_0000001_0_0001 (protein)
chain: SSSSDEEEERVEELLEQAREAYEEGDLHLVYELAVEALHVASESNNPELQRLVAEVVERLASSSS
B15: il2ra_site1_3nfp_normal_mot_HHH_b1_08274_000000076_0001_43_57_H_._HHH_b2_06250_0001_0000300016_0000001_0 (protein)
chain: SSSSSSDAEELVEELLEEARHIEDPEEARRVFQEAFRIAAKHNDDEADRLILEFVREESSSSSSS
B16: il2ra_site1_1z92_sap_14_mot_HHH_b2_01411_000000211_0001_19_33_H_._HHH_b1_01160_af2_0001_0000100005_0000001_0_0001_af2pred_0001_af2pred (protein)
chain: DLSELLKELQEKDPEVKEIFEFLEEVNDEDPTDKEAQKILRLLLLAARRDDPELVREAKELVERR
B17: il2ra_site1_1z92_normal_mot_01209686ea234b34325f918445e6eade_0001_af2_000000154_0001_18_33_H_._HHH_b1_00430_0001_0000200014_0000001_0 (protein)
chain: SSSSDEEEEQLERIVEELVREYNLSEEEKEALEQDARAALRLGASEKYIEKALRRAAELASSSSS
B18: il2ra_site1_1z92_normal_mot_01209686ea234b34325f918445e6eade_0001_af2_000000154_0001_18_33_H_._HHH_b1_06581_0001_0000400055_0000001_0_af2pred_0001_af2pred (protein)
chain: SSSSDLEERAEEIVEELVRELNLSEEQERALRYAAENAVKAGFSEKSIERALRDLAELSLSSSSS

The target in the assay is il2ra, P01589. Put plainly: yeast display titration.
The term apparent Kd denotes the concentration giving half-maximal binding under the conditions of the assay. Regarding B1, the “apparent Kd” value was “inactive: no binding seen”.
B2: the “apparent Kd” value was “inactive: no binding seen”.
The result for B3 reads “inactive: no binding seen”.
Consider B4, for which the “apparent Kd” value was “inactive: no binding seen”.
On to B5, for which the “apparent Kd” value was “inactive: no binding seen”.
Consider B6, for which the “apparent Kd” value was “inactive: no binding seen”.
As to B7, the “apparent Kd” value is “inactive: no binding seen”.
The same measure for B8: inactive: > 412 nM.
As to B9, the “apparent Kd” value is “inactive: no binding seen”.
As to B10, the “apparent Kd” value was “inactive: no binding seen”.
On to B11, for which the “apparent Kd” value is “inactive: no binding seen”.
For B12, the “apparent Kd” value is “inactive: no binding seen”.
The result for B13 reads “inactive: no binding seen”.
As to B14, the “apparent Kd” value was “inactive: no binding seen”.
In the case of B15, the “apparent Kd” value is “inactive: no binding seen”.
Consider B16, for which the “apparent Kd” value was “inactive: no binding seen”.
The same measure for B17: “inactive: no binding seen”; for B18: “inactive: no binding seen”.
